Experimental findings from PubChem BioAssay AID248 (DTP/NCI, 2004) are described below.

Structures are written as SMILES. The list is a part of this screen's results and no random one: it gathers tests that were run many times, whatever their T/C, doses with no T/C, and many T/C values between a quarter and a half above the control. Other doses and runs of a compound stand elsewhere. T/C: endpoint of the treated group in % of that of the vehicle group. Some doses have a count of surviving animals in place of a T/C: the source holds a T/C of zero for them, seemingly a mark for toxic or unscored doses. Some survivor counts are full or nearly so, which does not show that the dose was tolerated: the source hardly ever lists a survival T/C far under the control, and the zero likely stands for such cases as well. Survivors were counted at the toxicity check, usually on the fifth day, unless a day is given; later deaths do not show. Schedules are NCI's codes, taken here to give the interval after Q, in days (D) or hours (H), and the number of doses after X. Some schedules carry Z or #; the key to these is not given. Some doses were run more than once; the values are given in rising order. Where survival is the endpoint, the PubChem record calls one and a half times the control and up active, and a quarter to a half above the control has no call in these data; cut-offs in other NCI protocols can differ. Some T/C values are followed by the survivors on the day toxicity was checked, most often the fifth; without a count, all were alive then.

The experiment deals with L1210 leukemia ip in BDF1 mice, survival T/C. Description: NCI In Vivo Anticancer Drug Screen. Data for tumor model L1210 Leukemia (intraperitoneal) in B6D2F1 (BDF1) mice. Conditions: T/C endpoint: mean survival time, higher T/C = longer survival.
The mark [1] stands for this setting: dose: 225.0 mg/kg/injection, schedule: Q01DX Z (ip), vehicle: methylcellulose (MC).
Setting [2] is: dose: 337.5 mg/kg/injection, schedule: Q01DX Z (ip), vehicle: methylcellulose (MC).
[3] abbreviates: dose: 100.0 mg/kg/injection, schedule: Q01DX005 (ip), vehicle: saline.
Setting [4] is: dose: 200.0 mg/kg/injection, schedule: Q01DX005 (ip), vehicle: saline.
Where [5] appears, read: dose: 400.0 mg/kg/injection, schedule: Q01DX001 (ip), vehicle: saline.
Where [6] appears, read: dose: 400.0 mg/kg/injection, schedule: Q04DX003 (ip), vehicle: saline.
Setting [7] is: dose: 25.0 mg/kg/injection, schedule: Q04DX002 (ip), vehicle: Klucel (hydroxypropylcellulose) (HPC).
[8] abbreviates: dose: 50.0 mg/kg/injection, schedule: Q04DX002 (ip), vehicle: Klucel (hydroxypropylcellulose) (HPC).
[9] abbreviates: dose: 100.0 mg/kg/injection, schedule: Q04DX002 (ip), vehicle: Klucel (hydroxypropylcellulose) (HPC).
[10] abbreviates: dose: 200.0 mg/kg/injection, schedule: Q04DX002 (ip), vehicle: Klucel (hydroxypropylcellulose) (HPC).
Setting [11] is: dose: 400.0 mg/kg/injection, schedule: Q04DX002 (ip), vehicle: Klucel (hydroxypropylcellulose) (HPC).
Setting [12] is: dose: 400.0 mg/kg/injection, schedule: Q04DX003 (ip), vehicle: Klucel (hydroxypropylcellulose) (HPC).
Where [13] appears, read: dose: 100.0 mg/kg/injection, schedule: Q01DX009 (ip), vehicle: saline.
[14] abbreviates: dose: 200.0 mg/kg/injection, schedule: Q01DX001 (ip), vehicle: saline.
Setting [15] is: dose: 200.0 mg/kg/injection, schedule: Q04DX003 (ip), vehicle: saline.

Take `N=C(N)c1ccccc1`: the survivor count is, setting by setting: (dose: 100.0 mg/kg/injection, schedule: Q01DX Z (ip), vehicle: methylcellulose (MC)) 6 of 6; under setting [1], 3 of 6; under setting [2], 0 of 6 and 2 of 6; (dose: 506.0 mg/kg/injection, schedule: Q01DX Z (ip), vehicle: methylcellulose (MC)) 0 of 6 and 0 of 7; (dose: 759.0 mg/kg/injection, schedule: Q01DX Z (ip), vehicle: methylcellulose (MC)) 0 of 6 and 0 of 7. Further, the T/C under setting [1] was 90 [5 of 6 alive], 102, 108 % of control [5 of 6 alive]; the T/C under setting [2] was 97 and 121 % of control [5 of 7 alive].

In the case of `O=c1[nH]cc(F)c(=O)n1C1OC(CO)C(O)C1O` (stereo not given), the T/C (dose: 0.75 mg/kg/injection, schedule: Q01DX009 (ip), vehicle: saline) was 141 % of control; the T/C (dose: 1.56 mg/kg/injection, schedule: Q01DX005 (ip), vehicle: saline) was 134 [5 of 6 alive] and 143 % of control; the T/C (dose: 3.0 mg/kg/injection, schedule: Q01DX009 (ip), vehicle: saline) is 134 % of control [5 of 6 alive]; the T/C (dose: 3.12 mg/kg/injection, schedule: Q01DX005 (ip), vehicle: saline) is 144 % of control; the T/C under setting [3] is 125 and 137 % of control; the T/C under setting [4] is 131 and 148 % of control. For the same molecule, the survivor count is, setting by setting: (dose: 12.5 mg/kg/injection, schedule: Q01DX005 (ip), vehicle: saline) 6 of 6; (dose: 25.0 mg/kg/injection, schedule: Q01DX005 (ip), vehicle: saline) 6 of 6; (dose: 50.0 mg/kg/injection, schedule: Q01DX005 (ip), vehicle: saline) 6 of 6; under setting [3], 6 of 6; under setting [4], 6 of 6.

On to `NCc1ccc([N+](=O)[O-])cc1`, for which the survivor count is on record as 1 of 3 under setting [5] and 3 of 6 under setting [6].

As to `O=C(OCCCl)C1C2CCC(O2)C1C(=O)OCCCl` (stereo not given), the T/C (dose: 3.12 mg/kg/injection, schedule: Q04DX002 (ip), vehicle: Klucel (hydroxypropylcellulose) (HPC)) was 127 % of control. In addition, the survivor count was 0 of 3 (dose: 6.25 mg/kg/injection, schedule: Q04DX002 (ip), vehicle: Klucel (hydroxypropylcellulose) (HPC)); 0 of 3 (dose: 12.5 mg/kg/injection, schedule: Q04DX002 (ip), vehicle: Klucel (hydroxypropylcellulose) (HPC)); 0 of 3 under setting [7]; 0 of 3 under setting [8]; 0 of 3 under setting [9]; 0 of 3 under setting [10]. Moreover, the survivor count under setting [11] is listed as 0 of 3.

Take `Cn1c(=N)sc2ccc3ccccc3c21`: the survivor count by setting is: (dose: 200.0 mg/kg/injection, schedule: Q04DX003 (ip), vehicle: Klucel (hydroxypropylcellulose) (HPC)) 6 of 6; under setting [12], 6 of 6.

As for `COC(OC(CO)C(O)S(=O)(=O)O)C(O)S(=O)(=O)O` (stereo not given), the T/C is, setting by setting: (dose: 35.0 mg/kg/injection, schedule: Q01DX009 (ip), vehicle: saline) 129 % of control; (dose: 50.0 mg/kg/injection, schedule: Q01DX009 (ip), vehicle: saline) 133 % of control; (dose: 70.0 mg/kg/injection, schedule: Q01DX009 (ip), vehicle: saline) 126 and 143 % of control; under setting [13], 141 % of control; (dose: 100.0 mg/kg/injection, schedule: Q03HX016 (ip), vehicle: saline) 135 % of control; (dose: 100.0 mg/kg/injection, schedule: Q08DX002 (ip), vehicle: saline) 128 % of control. For the same molecule, the T/C by setting is: (dose: 140.0 mg/kg/injection, schedule: Q01DX009 (ip), vehicle: saline) 139 and 146 % of control; under setting [14], 140 % of control; under setting [15], 127 % of control; (dose: 200.0 mg/kg/injection, schedule: Q08DX002 (ip), vehicle: saline) 133 % of control; (dose: 280.0 mg/kg/injection, schedule: Q01DX001 (ip), vehicle: saline) 130 % of control; (dose: 280.0 mg/kg/injection, schedule: Q01DX009 (ip), vehicle: saline) 143 % of control [4 of 6 alive]. Further, the T/C was 140 % of control (dose: 400.0 mg/kg/injection, schedule: Q08DX002 (ip), vehicle: saline); 125 and 133 % of control [4 of 6 alive] (dose: 560.0 mg/kg/injection, schedule: Q01DX001 (ip), vehicle: saline). Moreover, the survivor count was 7 of 8 (dose: 400.0 mg/kg/injection, schedule: Q01DX009 (ip), vehicle: saline); 4 of 8 (dose: 400.0 mg/kg/injection, schedule: Q01DX009 (sc), vehicle: saline); 0 of 6 and 1 of 6 (dose: 560.0 mg/kg/injection, schedule: Q01DX009 (ip), vehicle: saline); 3 of 8 (dose: 800.0 mg/kg/injection, schedule: Q01DX001 (ip), vehicle: saline); 1 of 8 (dose: 800.0 mg/kg/injection, schedule: Q04DX003 (ip), vehicle: saline); 2 of 8 (dose: 800.0 mg/kg/injection, schedule: Q08DX002 (ip), vehicle: saline).

As to `NC(=S)NS(=O)(=O)c1ccc(N)cc1`, the T/C under setting [14] was 127 % of control [3 of 4 alive].

Take `CNCCN(C)CCN(C)Cc1ccc(OC)cc1`: where the note is “dose: 400.0 mg/kg/injection, schedule: Q01DX009 (ip), vehicle: water”, the survivor count was 4 of 6.

On to `O=S(=O)(O)O.[N-]=C(N)/N=C(\[NH-])N.[N-]=C(N)/N=C(\[NH-])N.[N-]=C(N)NC(=[N-])N.[Rh+3]`, for which, under setting [13], the survivor count is reported as 0 of 6.

For the molecule `NC(CSS(=O)(=O)O)=NCCCCOc1ccccc1`, the survivor count under setting [7] is listed as 3 of 3; the survivor count under setting [8] is 0 of 3; the survivor count under setting [9] is 1 of 3; the survivor count under setting [10] is 1 of 3; the survivor count under setting [11] was 0 of 3.

For the molecule `C[N+](C)(C)Cc1cccc([N+](=O)[O-])c1`, the survivor count (dose: 100.0 mg/kg/injection, schedule: Q01DX001 (ip), vehicle: saline) is listed as 0 of 4; the survivor count under setting [14] is reported as 0 of 4; the survivor count under setting [5] is 0 of 4.

In the case of `O=NN(CC(=O)O)C(c1ccccc1)(c1ccccc1)c1ccccc1Cl`, the survivor count under setting [12] was 2 of 6.

Take `CC1C[N+](C)=C2CCCCC2=C1N` (stereo not given): the survivor count reads like this: (dose: 100.0 mg/kg/injection, schedule: Q04DX003 (ip), vehicle: saline) 0 of 6; under setting [15], 0 of 6; under setting [6], 0 of 6.

For `CC1=NN(c2ccccc2)/C(=N/N=C(N)N)C1CC1C(C)=NN(c2ccccc2)/C1=N/N=C(N)N` (stereo not given), the survivor count (dose: 480.0 mg/kg/injection, schedule: Q01DX Z (ip), vehicle: carboxymethylcellulose (CMC)) is on record as 4 of 6.

`CC1C(C(=O)O)CC([N+](=O)[O-])C(Cl)C1[N+](=O)[O-]` (stereo not given): the survivor count reads like this: (dose: 100.0 mg/kg/injection, schedule: Q01DX009 (ip), vehicle: carboxymethylcellulose (CMC)) 3 of 3; (dose: 200.0 mg/kg/injection, schedule: Q01DX009 (ip), vehicle: carboxymethylcellulose (CMC)) 0 of 3 and 0 of 6; (dose: 400.0 mg/kg/injection, schedule: Q04DX002 (ip), vehicle: carboxymethylcellulose (CMC)) 1 of 6 and 1 of 3.

Consider `O=C(CN1CCOCC1)Nc1ccc(S(=O)(=O)c2ccc([N+](=O)[O-])cc2)cc1`, for which the survivor count (dose: 300.0 mg/kg/injection, schedule: Q01DX001 (ip), vehicle: acetone) is given as 0 of 6.
